Test results as given in US7514215B2, “Sulfotransferase SULT2A1 sequence variants” (Mayo Foundation for Medical Education and Research, priority 2001, dated 2009).

B1: Ala63Pro: SULT2A1 allozyme having a proline at amino acid residue 63 in place of alanine (protein, UniProt Q06520 1-285, looked up, variant A63P)
Sulfotransferase 2A1: MSDDFLWFEGIAFPTMGFRSETLRKVRDEFVIRDEDVIILTYPKSGTNWLAEILCLMHSKGDPKWIQSVPIWERSPWVESEIGYTALSETESPRLFSSHLPIQLFPKSFFSSKAKVIYLMRNPRDVLVSGYFFWKNMKFIKKPKSWEEYFEWFCQGTVLYGSWFDHIHGWMPMREEKNFLLLSYEELKQDTGRTIEKICQFLGKTLEPEELNLILKNSSFQSMKENKMSNYSLLSVDYVVDKAQLLRKGVSGDWKNHFTVAQAEDFDKLFQEKMADLPRELFPWE
B2: Lys227Glu: SULT2A1 allozyme having a glutamate at amino acid residue 227 in place of a lysine (protein, UniProt Q06520 1-285, looked up, variant K227E)
Sulfotransferase 2A1: MSDDFLWFEGIAFPTMGFRSETLRKVRDEFVIRDEDVIILTYPKSGTNWLAEILCLMHSKGDAKWIQSVPIWERSPWVESEIGYTALSETESPRLFSSHLPIQLFPKSFFSSKAKVIYLMRNPRDVLVSGYFFWKNMKFIKKPKSWEEYFEWFCQGTVLYGSWFDHIHGWMPMREEKNFLLLSYEELKQDTGRTIEKICQFLGKTLEPEELNLILKNSSFQSMKENEMSNYSLLSVDYVVDKAQLLRKGVSGDWKNHFTVAQAEDFDKLFQEKMADLPRELFPWE
B3: Ala261Thr: SULT2A1 allozyme having a threonine at amino acid 261 in place of an alanine (protein)
chain: MSDDFLWFEGIAFPTMGFRSETLRKVRDEFVIRDEDVIILTYPKSGTNWLAEILCLMHSKGDAKWIQSVPIWERSPWVESEIGYTALSESESPRLFSSHLPIQLFPKSFFSSKAKVIYLMRNPRDVLVSGYFFWKNMKFIKKPKSWEEYFEWFCQGTVLYGSWFDHIHGWMPMREEKNFLLLSYEELKQDTGRTIEKICQFLGKTLEPEELNLILKNSSFQSMKENKMSNYSLLSVDYVVDKAQLLRKGVSGDWKNHFTVTQAEDFDKLFQEKMADLPRELFPWE
B4: 63Pro/261Thr: SULT2A1 polypeptide with a proline at position 63 and a threonine at position 261 (double variant) (protein, UniProt Q06520 1-285, looked up, variant A63P A261T)
Sulfotransferase 2A1: MSDDFLWFEGIAFPTMGFRSETLRKVRDEFVIRDEDVIILTYPKSGTNWLAEILCLMHSKGDPKWIQSVPIWERSPWVESEIGYTALSETESPRLFSSHLPIQLFPKSFFSSKAKVIYLMRNPRDVLVSGYFFWKNMKFIKKPKSWEEYFEWFCQGTVLYGSWFDHIHGWMPMREEKNFLLLSYEELKQDTGRTIEKICQFLGKTLEPEELNLILKNSSFQSMKENKMSNYSLLSVDYVVDKAQLLRKGVSGDWKNHFTVTQAEDFDKLFQEKMADLPRELFPWE
B5: WT: recombinant wild type (reference) human SULT2A1 polypeptide, SEQ ID NO:3, expressed in COS-1 cells (protein, listed as Homo Sapiens)
chain: MSDDFLWFEGIAFPTMGFRSETLRKVRDEFVIRDEDVIILTYPKSGTNWLAEILCLMHSKGDAKWIQSVPIWERSPWVESEIGYTALSESESPRLFSSHLPIQLFPKSFFSSKAKVIYLMRNPRDVLVSGYFFWKNMKFIKKPKSWEEYFEWFCQGTVLYGSWFDHIHGWMPMREEKNFLLLSYEELKQDTGRTIEKICQFLGKTLEPEELNLILKNSSFQSMKENKMSNYSLLSVDYVVDKAQLLRKGVSGDWKNHFTVAQAEDFDKLFQEKMADLPRELFPWE

System: SULT2A1
Test: Quantitative Western blot analysis of immunoreactive SULT2A1
Parameters: species or system human
Conditions: for Immunoreactive protein (%): percentage of wild type SULT2A1 protein band, corrected for transfection efficiency, average of three transfections
Procedure: Western blot analysis: Levels of immunoreactive SULT2A1 were determined for each recombinant allozyme by performing quantitative Western blot analysis. Rabbit polyclonal antibody directed against SULT2A1 amino acids 268-285, with an additional amino terminus cysteine (described in Wood et al., J. Steroid Biochem. Mol. Biol. 59:467-478 (1996)) at a dilution of 1:2000 was used in these studies. […] Electrophoresis was performed for 1 h at 150 volts, and proteins were transferred to nitrocellulose membranes. The membranes were blocked overnight at 4° C. with 5% dried milk in Tris buffered saline with Tween-20 (TBST). Subsequently, the membranes were incubated with primary antibody for 1 h, followed by three TBST washes. The secondary antibody, a 1:10,000 dilution of goat anti-rabbit horseradish peroxidase (BioRad), was applied for 1 h in 5% milk in TBST, followed by multiple washes. Bound antibody was detected with the ECL Western Blotting System (Amersham Pharmacia, Piscataway, N.J.). Multiple blots were assayed for each allozyme, and immunoreactive protein levels were expressed as a percentage of the intensity of the control wild type SULT2A1 protein band on the same gel. The AMBIS Radioanalytical Imaging System, Quant Probe v. 4.31 (AMBIS, San Diego, Calif. ) was used to analyze each blot.
Western blot analysis data were obtained by assaying cytosol for each allozyme from three independent transfections performed on different days to ensure that results were reproducible. The data listed in Table 5 are averages of those three transfections. It should be noted that none of the alterations in encoded amino acid for the variant allozymes studied were located within the sequence of the peptide used to generate the rabbit polyclonal antibody utilized to perform the Western blots.

Molecule	level of immunoreactive protein (in words)	Immunoreactive protein (%)
B1	decrease in immunoreactive protein	27 ± 9 %
B2	very low level of immunoreactive protein	2 ± 1 %
B3		79 ± 7%
B4		26 ± 14 %
B5		100%
